Measured values published in article PMC7713382, “Structural analysis and insight into effector binding of the niacin-responsive repressor NiaR from Bacillus halodurans” (Scientific Reports, 2020).

Key:
[1] = molecular target: BhNiaR (Bacillus halodurans) (UniProt Q9KDJ7); experiment: EMSA; conditions: no niacin, Zn2+-bound protein; EMSA: 20 mM Tris pH 8.0, 100 mM KCl, 1 mM MgCl2, 1 mM DTT, 5% glycerol, +/- 1 mM niacin; 80 nM DNA, 0-3 µM protein; recombinant protein; residues 1-179; label: none (SYBR Green stain)
[2] = molecular target: BhNiaR H152A (Bacillus halodurans) (UniProt Q9KDJ7); experiment: EMSA; conditions: metal-free mutant, severe defect, EMSA: 20 mM Tris pH 8.0, 100 mM KCl, 1 mM MgCl2, 1 mM DTT, 5% glycerol, 80 nM DNA, 0-3 µM protein, recombinant protein

Measured: binding result

CTCATTTACATATGTCTTGACATCTATATTTACA (double strand) [nifS-nadB promoter 34-bp cognate DNA (type I)]
binds more weakly: [1] | [2]; 1 mM niacin, residues 1-179, label: none (SYBR Green stain) | [2]; no niacin, +/- 1 mM niacin, residues 1-179, label: none (SYBR Green stain)

Weaker means in comparison with the reference protein, sequence or condition of that experiment. For part of these data: The exact form of at least one protein or probe is not confirmed.
